Measurements as given in patent publication US20190183976A1.
Results are given in words; binding and its absence hold for the method and conditions named. Some binding calls cover weakened binding; strength is not graded here.

Chains of the proteins cited; added tags and fusions are not shown.
UniProt P61073: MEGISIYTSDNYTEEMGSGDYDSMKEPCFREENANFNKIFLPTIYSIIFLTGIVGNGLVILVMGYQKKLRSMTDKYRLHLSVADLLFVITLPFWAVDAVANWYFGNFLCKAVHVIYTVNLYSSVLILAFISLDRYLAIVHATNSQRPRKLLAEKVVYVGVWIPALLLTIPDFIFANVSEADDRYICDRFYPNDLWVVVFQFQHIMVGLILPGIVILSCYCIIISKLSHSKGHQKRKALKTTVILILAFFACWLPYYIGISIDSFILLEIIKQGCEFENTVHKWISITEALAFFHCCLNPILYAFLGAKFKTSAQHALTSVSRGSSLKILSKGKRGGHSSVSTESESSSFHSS

Columns and labels:
CXCR4-EGFP (human) = CXCR4-EGFP (human) (UniProt P61073); test: co-internalization of CXCR4-GFP after GPCRx agonist, U-2 OS cells
CXCR4-VC (human) [1] = biological target: CXCR4-VC (human) (UniProt P61073); test: BiFC, U-2 OS cells (FIG. 2S)
CXCR4-VC (human) [2] = biological target: CXCR4-VC (human) (UniProt P61073); test: BiFC and co-internalization assay, U-2 OS cells
CXCR4-VC (human) [3] = biological target: CXCR4-VC (human) (UniProt P61073); test: BiFC, U-2 OS cells
CXCR4-VN (human) [4] = biological target: CXCR4-VN (human) (UniProt P61073); test: BiFC, U-2 OS cells
CXCR4-VN (human) [5] = biological target: CXCR4-VN (human) (UniProt P61073); test: BiFC, U-2 OS cells (FIG. 2J)

Measured: binding

B1: PTGER3-VN (receptor, human, UniProt P43115 1-390, looked up, not shown: small tags and cut ends)
chain: MKETRGYGGDAPFCTRLNHSYTGMWAPERSAEARGNLTRPPGSGEDCGSVSVAFPITMLLTGFVGNALAMLLVSRSYRRRESKRKKSFLLCIGWLALTDLVGQLLTTPVVIVVYLSKQRWEHIDPSGRLCTFFGLTMTVFGLSSLFIASAMAVERALAIRAPHWYASHMKTRATRAVLLGVWLAVLAFALLPVLGVGQYTVQWPGTWCFISTGRGGNGTSSSHNWGNLFFASAFAFLGLLALTVTFSCNLATIKALVSRCRAKATASQSSAQWGRITTETAIQLMGIMCVLSVCWSPLLIMMLKMIFNQTSVEHCKTHTEKQKECNFFLIAVRLASLNQILDPWVYLLLRKILLRKFCQIRYHTNNYASSSTSLPCQCSSTLMWSDHLER
binds: CXCR4-EGFP (human) | CXCR4-VC (human) [1] | CXCR4-VC (human) [2] | CXCR4-VC (human) [3]

B2: CALCR-VC (receptor, human, UniProt P30988 25-474, looked up, not shown: small tags and cut ends)
chain: AFSNQTYPTIEPKPFLYVVGRKKMMDAQYKCYDRMQQLPAYQGEGPYCNRTWDGWLCWDDTPAGVLSYQFCPDYFPDFDPSEKVTKYCDEKGVWFKHPENNRTWSNYTMCNAFTPEKLKNAYVLYYLAIVGHSLSIFTLVISLGIFVFFRSLGCQRVTLHKNMFLTYILNSMIIIIHLVEVVPNGELVRRDPVSCKILHFFHQYMMACNYFWMLCEGIYLHTLIVVAVFTEKQRLRWYYLLGWGFPLVPTTIHAITRAVYFNDNCWLSVETHLLYIIHGPVMAALVVNFFFLLNIVRVLVTKMRETHEAESHMYLKAVKATMILVPLLGIQFVVFPWRPSNKMLGKIYDYVMHSLIHFQGFFVATIYCFCNNEVQTTVKRQWAQFKIQWNQRWGRRPSNRSARAAAAAAEAGDIPIYICHQELRNEPANNQGEESAEIIPLNIIEQESSA
binds: CXCR4-VN (human) [4] | CXCR4-VN (human) [5]
